Assay results from US20140011978A1.
Results are given in words; binding and its absence hold for the method and conditions named. Blank lines part the entries; values can stand above or below the binder they belong to.

How the values were obtained:
Assay in all cases: ELISA: growth factor coated, Fg fragment in solution, A450 (methods analogous to Example 3)
FGF-1 = target: FGF-1
IGF-I = target: IGF-I
PDGF-CC = target: PDGF-CC
NGF = target: NGF
VEGF-A121 = target: VEGF-A121
IGFBP-1 = target: IGFBP-1
BMP-7 = target: BMP-7

binding (FGF-1): no binding
binding (IGF-I): no binding
binding (PDGF-CC): no binding
binding (NGF): no binding
binding (VEGF-A121): no binding
binding (IGFBP-1): no binding
binding (BMP-7): no binding
B1: Fg β1-66 (protein)
fibrinogen Bβ chain fragment: QGVNDNEEGFFSARGHRPLDKKREEAPSLRPAPPPISGGGYRARPAKAAATQKKVERKAPDAGGCG

binding (FGF-1): no binding
binding (IGF-I): no binding
binding (PDGF-CC): no binding
binding (NGF): no binding
binding (VEGF-A121): no binding
binding (IGFBP-1): no binding
binding (BMP-7): no binding
B2: Fg β15-66 (protein)
chain: GSNQEQVSPLGHRPLDKKREEAPSLRPAPPPISGGGYRARPAKAAATQKKVERKAPDAGGCGHHHHHH
